Drug screen on melanoma cell lines: apoptosis marker

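Human melanoma cell lines in 1,536-well plates were treated with two drugs together for 72 h, then fixed, stained and imaged. Values are the share of nuclei positive for cleaved PARP as a percentage of the same share in the DMSO control: 100 is the control level, higher means more apoptosis. Concentrations were fixed for each drug; these are the higher of two levels. These are primary screening values without error estimates. Basal and induced levels differ widely between cell lines.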
An unselected part of the screen is shown.
An entry leaves out what has no value listed here.

First drug in all entries: indole-3-carbinol, 4000 nM, OCc1c[nH]c2ccccc12

Drugs:
etoposide (100 nM): COc1cc([C@@H]2c3cc4c(cc3[C@@H](O[C@@H]3O[C@@H]5CO[C@@H](C)O[C@H]5[C@H](O)[C@H]3O)[C@H]3COC(=O)[C@H]23)OCO4)cc(OC)c1O
GW0742 (10000 nM): Cc1cc(SCc2sc(-c3ccc(C(F)(F)F)c(F)c3)nc2C)ccc1OCC(=O)O
CX-4945 (2000 nM): O=C(O)c1ccc2c(c1)nc(Nc1cccc(Cl)c1)c1ccncc12
midostaurin (400 nM): CO[C@@H]1[C@H](N(C)C(=O)c2ccccc2)C[C@H]2O[C@]1(C)n1c3ccccc3c3c4c(c5c6ccccc6n2c5c31)C(=O)NC4
SU6656 (2000 nM): CN(C)S(=O)(=O)c1ccc2c(c1)/C(=C/c1cc3c([nH]1)CCCC3)C(=O)N2
OSU-03012 (5000 nM): NCC(=O)Nc1ccc(-n2nc(C(F)(F)F)cc2-c2ccc3c(ccc4ccccc43)c2)cc1
sunitinib (2000 nM): CCN(CC)CCNC(=O)c1c(C)[nH]c(/C=C2\C(=O)Nc3ccc(F)cc32)c1C
L-779450 (1000 nM): Oc1cc(-c2nc(-c3ccccc3)[nH]c2-c2ccncc2)ccc1Cl
perifosine (2000 nM): CCCCCCCCCCCCCCCCCCOP(=O)([O-])OC1CC[N+](C)(C)CC1
JZL184 (5000 nM): O=C(Oc1ccc([N+](=O)[O-])cc1)N1CCC(C(O)(c2ccc3c(c2)OCO3)c2ccc3c(c2)OCO3)CC1
PD173074 (500 nM): CCN(CC)CCCCNc1ncc2cc(-c3cc(OC)cc(OC)c3)c(NC(=O)NC(C)(C)C)nc2n1
NVP-BEZ235 (20 nM): Cn1c(=O)n(-c2ccc(C(C)(C)C#N)cc2)c2c3cc(-c4cnc5ccccc5c4)ccc3ncc21
gemcitabine (2 nM): Nc1ccn([C@@H]2O[C@H](CO)[C@@H](O)C2(F)F)c(=O)n1
GSK650394 (800 nM): O=C(O)c1ccc(-c2c[nH]c3ncc(-c4ccccc4)cc23)cc1C1CCCC1
PF-562271 (400 nM): CN(c1ncccc1CNc1nc(Nc2ccc3c(c2)CC(=O)N3)ncc1C(F)(F)F)S(C)(=O)=O
nilotinib (1000 nM): Cc1cn(-c2cc(NC(=O)c3ccc(C)c(Nc4nccc(-c5cccnc5)n4)c3)cc(C(F)(F)F)c2)cn1
tamatinib (2000 nM): COc1cc(Nc2ncc(F)c(Nc3ccc4c(n3)NC(=O)C(C)(C)O4)n2)cc(OC)c1OC
sorafenib (2000 nM): CNC(=O)c1cc(Oc2ccc(NC(=O)Nc3ccc(Cl)c(C(F)(F)F)c3)cc2)ccn1
vatalanib (10000 nM): Clc1ccc(Nc2nnc(Cc3ccncc3)c3ccccc23)cc1
erlotinib (4000 nM): C#Cc1cccc(Nc2ncnc3cc(OCCOC)c(OCCOC)cc23)c1
XAV939 (10000 nM): Oc1nc(-c2ccc(C(F)(F)F)cc2)nc2c1CSCC2
stibogluconate (10000 nM): O=C(O)[C@@H]1[O][Sb](=[O])([O][Sb]2(=[O])[O][C@H]([C@H](O)CO)[C@H](O)[C@H](C(=O)O)[O]2)[O][C@H]([C@H](O)CO)[C@@H]1O (stereo partly drawn)
ENMD-2076 (200 nM): Cc1cc(Nc2cc(N3CCN(C)CC3)nc(/C=C/c3ccccc3)n2)n[nH]1
RKI-983 (2000 nM): C[C@@H](N)c1ccc(C(=O)Nc2ccnc3[nH]ccc23)cc1
lestaurtinib (20 nM): C[C@]12O[C@H](C[C@]1(O)CO)n1c3ccccc3c3c4c(c5c6ccccc6n2c5c31)CNC4=O
MK-2206 (2000 nM): NC1(c2ccc(-c3nc4ccn5c(=O)[nH]nc5c4cc3-c3ccccc3)cc2)CCC1
bexarotene (10000 nM): C=C(c1ccc(C(=O)O)cc1)c1cc2c(cc1C)C(C)(C)CCC2(C)C
AS-252424 (5000 nM): O=C1NC(=O)/C(=C/c2ccc(-c3ccc(F)cc3O)o2)S1
vorinostat (400 nM): O=C(CCCCCCC(=O)Nc1ccccc1)NO
ABT-263 (2000 nM): CC1(C)CCC(c2ccc(Cl)cc2)=C(CN2CCN(c3ccc(C(=O)NS(=O)(=O)c4ccc(N[C@H](CCN5CCOCC5)CSc5ccccc5)c(S(=O)(=O)C(F)(F)F)c4)cc3)CC2)C1
PLX4720 (400 nM): CCCS(=O)(=O)Nc1ccc(F)c(C(=O)c2c[nH]c3ncc(Cl)cc23)c1F
cediranib (2000 nM): COc1cc2c(Oc3ccc4[nH]c(C)cc4c3F)ncnc2cc1OCCCN1CCCC1
tozasertib (30 nM): Cc1cc(Nc2cc(N3CCN(C)CC3)nc(Sc3ccc(NC(=O)C4CC4)cc3)n2)n[nH]1
OSI-906 (2000 nM): C[C@]1(O)C[C@@H](c2nc(-c3ccc4ccc(-c5ccccc5)nc4c3)c3c(N)nccn32)C1

Partner: midostaurin
IST-MEL1: 142
C32: 94.5
WM115: 278
WM1745: 205
SK-MEL-28: 233
G-361: 313
A101D: 127

Partner: cediranib
IST-MEL1: 77.0
C32: 75.9
WM115: 103
WM1745: 119
SK-MEL-28: 148
G-361: 141
A101D: 92.2

Partner: MK-2206
IST-MEL1: 79.5
C32: 127
A375: 71.7
WM115: 169
WM1745: 116
SK-MEL-28: 37.8
G-361: 171
A101D: 80.7

Partner: OSI-906
IST-MEL1: 85.8
C32: 108
A375: 25.0
WM115: 80.6
WM1745: 135
SK-MEL-28: 73.1
G-361: 130
A101D: 36.4

Partner: L-779450
IST-MEL1: 145
C32: 452
A375: 292
WM115: 447
SK-MEL-28: 152
G-361: 243
A101D: 452

Partner: bexarotene
IST-MEL1: 278
C32: 23.4
A375: 51.1
WM115: 61.1
WM1745: 74.9
SK-MEL-28: 110
G-361: 137
A101D: 118

Partner: NVP-BEZ235
IST-MEL1: 67.0
C32: 399
A375: 71.8
WM115: 95.4
WM1745: 268
SK-MEL-28: 48.0
G-361: 144
A101D: 88.5

Partner: tamatinib
IST-MEL1: 127
C32: 64.5
WM115: 52.5
WM1745: 203
SK-MEL-28: 50.8
G-361: 91.7
A101D: 382

Partner: ENMD-2076
IST-MEL1: 151
C32: 149
A375: 140
WM115: 314
WM1745: 111
SK-MEL-28: 126
G-361: 104
A101D: 255

Partner: nilotinib
IST-MEL1: 37.3
C32: 45.1
A375: 23.1
WM115: 80.5
WM1745: 82.2
SK-MEL-28: 117
G-361: 187
A101D: 53.5

Partner: GW0742
IST-MEL1: 122
C32: 81.1
A375: 66.7
WM115: 217
SK-MEL-28: 39.4
G-361: 115
A101D: 82.9

Partner: SU6656
IST-MEL1: 50.7
C32: 41.8
WM115: 38.7
WM1745: 111
SK-MEL-28: 91.4
G-361: 166
A101D: 327

Partner: gemcitabine
IST-MEL1: 244
C32: 44.2
A375: 42.9
WM115: 204
WM1745: 167
SK-MEL-28: 48.6
G-361: 240
A101D: 183

Partner: perifosine
IST-MEL1: 100
C32: 144
A375: 48.7
WM115: 76.9
WM1745: 93.7
SK-MEL-28: 50.9
G-361: 113
A101D: 69.0

Partner: PF-562271
IST-MEL1: 122
C32: 69.6
A375: 205
WM115: 134
WM1745: 142
SK-MEL-28: 181
G-361: 179
A101D: 160

Partner: CX-4945
IST-MEL1: 119
C32: 24.2
A375: 47.5
WM115: 290
WM1745: 115
SK-MEL-28: 200
G-361: 222
A101D: 62.0

Partner: etoposide
IST-MEL1: 65.7
C32: 73.3
A375: 101
WM115: 224
WM1745: 99.1
SK-MEL-28: 91.4
A101D: 69.3

Partner: PLX4720
IST-MEL1: 74.3
C32: 93.6
A375: 322
WM115: 177
WM1745: 233
SK-MEL-28: 41.9
G-361: 146
A101D: 88.7

Partner: stibogluconate
IST-MEL1: 251
C32: 102
A375: 165
WM115: 179
WM1745: 92.9
SK-MEL-28: 60.5
G-361: 165
A101D: 72.5

Partner: PD173074
IST-MEL1: 88.2
C32: 84.0
A375: 51.4
WM115: 142
SK-MEL-28: 164
G-361: 19.2
A101D: 36.7

Partner: XAV939
IST-MEL1: 106
C32: 69.2
A375: 53.6
WM115: 81.5
SK-MEL-28: 61.8
G-361: 90.6
A101D: 58.8

Partner: ABT-263
IST-MEL1: 150
C32: 140
A375: 204
WM115: 113
WM1745: 2210
SK-MEL-28: 535
G-361: 192
A101D: 101

Partner: AS-252424
IST-MEL1: 272
C32: 83.0
A375: 39.3
WM115: 222
SK-MEL-28: 52.9
G-361: 301
A101D: 108

Partner: OSU-03012
IST-MEL1: 125
C32: 112
WM115: 172
WM1745: 96.8
SK-MEL-28: 862
G-361: 120
A101D: 257

Partner: JZL184
IST-MEL1: 47.0
C32: 162
A375: 61.7
WM115: 162
SK-MEL-28: 75.1
G-361: 78.6
A101D: 80.9

Partner: sorafenib
IST-MEL1: 136
C32: 50.1
A375: 85.6
WM115: 33.9
WM1745: 109
SK-MEL-28: 116
G-361: 119
A101D: 35.2

Partner: vatalanib
IST-MEL1: 89.7
C32: 193
A375: 55.4
WM115: 229
WM1745: 136
SK-MEL-28: 59.5
G-361: 162
A101D: 38.4

Partner: GSK650394
IST-MEL1: 160
C32: 141
WM115: 88.8
WM1745: 124
SK-MEL-28: 132
G-361: 200
A101D: 234

Partner: vorinostat
IST-MEL1: 101
C32: 54.9
WM115: 123
WM1745: 105
SK-MEL-28: 56.7
G-361: 240
A101D: 99.6

Partner: sunitinib
IST-MEL1: 78.0
C32: 103
A375: 122
WM115: 199
WM1745: 259
SK-MEL-28: 42.8
G-361: 130
A101D: 93.7

Partner: RKI-983
IST-MEL1: 55.4
C32: 301
A375: 72.5
WM115: 71.1
WM1745: 189
SK-MEL-28: 57.0
G-361: 126
A101D: 84.7

Partner: lestaurtinib
IST-MEL1: 69.0
C32: 28.5
A375: 140
WM115: 326
WM1745: 101
SK-MEL-28: 48.3
G-361: 67.1
A101D: 84.3

Partner: tozasertib
IST-MEL1: 66.4
C32: 905
A375: 91.2
WM115: 187
WM1745: 126
SK-MEL-28: 90.9
G-361: 101
A101D: 80.2

Partner: erlotinib
IST-MEL1: 30.7
C32: 102
A375: 359
WM115: 184
WM1745: 196
SK-MEL-28: 85.4
G-361: 160
A101D: 194

The last 2 entries again:

{"partner": "tozasertib", "IST-MEL1": 66.4, "C32": 905, "A375": 91.2, "WM115": 187, "WM1745": 126, "SK-MEL-28": 90.9, "G-361": 101, "A101D": 80.2}
{"partner": "erlotinib", "IST-MEL1": 30.7, "C32": 102, "A375": 359, "WM115": 184, "WM1745": 196, "SK-MEL-28": 85.4, "G-361": 160, "A101D": 194}

Values as published with doi:10.1371/journal.pone.0140310, rounded.